According to article PMC3141008:
No constants are given. Whether binding was seen depends on the method and setting. Binding seen in cells or lysates may run through a third protein. Some entries that bind do so weakly or less than the wild type. Sequences can lack the tags named with a protein.

T1: NUCLEAR RNA POLYMERASE D1 (NRPD1), carboxy-terminal 3×Flag tagged (Arabidopsis thaliana) (UniProt Q9LQ02)
T1 sequence: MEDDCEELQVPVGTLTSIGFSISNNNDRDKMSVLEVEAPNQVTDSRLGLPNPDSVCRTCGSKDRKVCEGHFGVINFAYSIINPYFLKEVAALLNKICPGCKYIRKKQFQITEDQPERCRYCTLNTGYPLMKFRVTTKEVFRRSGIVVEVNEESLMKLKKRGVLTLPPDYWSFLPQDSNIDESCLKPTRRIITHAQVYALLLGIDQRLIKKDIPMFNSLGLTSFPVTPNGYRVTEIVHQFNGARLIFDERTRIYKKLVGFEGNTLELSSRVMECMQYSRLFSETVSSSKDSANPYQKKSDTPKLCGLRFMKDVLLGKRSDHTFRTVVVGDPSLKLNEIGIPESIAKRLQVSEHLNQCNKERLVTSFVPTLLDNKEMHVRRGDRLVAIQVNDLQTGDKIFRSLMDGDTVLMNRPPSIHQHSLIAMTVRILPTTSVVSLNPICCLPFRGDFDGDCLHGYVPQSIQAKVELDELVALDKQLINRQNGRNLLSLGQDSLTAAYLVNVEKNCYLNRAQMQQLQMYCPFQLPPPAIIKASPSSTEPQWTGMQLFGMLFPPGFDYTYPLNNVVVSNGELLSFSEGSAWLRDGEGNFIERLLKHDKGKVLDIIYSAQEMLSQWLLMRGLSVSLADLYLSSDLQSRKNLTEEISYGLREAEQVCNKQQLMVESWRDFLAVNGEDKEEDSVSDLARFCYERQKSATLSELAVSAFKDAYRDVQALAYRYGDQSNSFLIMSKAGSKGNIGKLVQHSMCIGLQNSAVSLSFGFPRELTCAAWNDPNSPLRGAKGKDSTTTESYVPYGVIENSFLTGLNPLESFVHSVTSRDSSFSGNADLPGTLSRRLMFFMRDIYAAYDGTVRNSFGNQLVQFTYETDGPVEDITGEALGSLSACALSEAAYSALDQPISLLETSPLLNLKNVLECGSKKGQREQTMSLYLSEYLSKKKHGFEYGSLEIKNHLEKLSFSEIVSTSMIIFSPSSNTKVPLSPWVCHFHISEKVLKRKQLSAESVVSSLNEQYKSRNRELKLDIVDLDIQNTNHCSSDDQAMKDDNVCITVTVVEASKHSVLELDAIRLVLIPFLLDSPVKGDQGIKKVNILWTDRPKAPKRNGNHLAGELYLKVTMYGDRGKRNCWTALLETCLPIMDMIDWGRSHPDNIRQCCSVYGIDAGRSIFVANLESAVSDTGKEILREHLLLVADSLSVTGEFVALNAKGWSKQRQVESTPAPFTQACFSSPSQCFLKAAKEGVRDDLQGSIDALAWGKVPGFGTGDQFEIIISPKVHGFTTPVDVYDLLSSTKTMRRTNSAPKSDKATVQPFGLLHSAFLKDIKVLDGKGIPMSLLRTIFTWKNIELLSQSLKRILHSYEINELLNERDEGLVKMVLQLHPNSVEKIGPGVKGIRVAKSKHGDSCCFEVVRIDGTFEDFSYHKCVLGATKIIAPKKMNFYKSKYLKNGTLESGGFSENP

B1: RNA-… RNA POLYMERASE 2 (RDR2), carboxy-terminal epitope tagged (protein, UniProt O82504 1-1133)
chain: MVSETTTNRSTVKISNVPQTIVADELLRFLELHLGEDTVFALEIPTTRDNWKPRDFARVQFTTLEVKSRAQLLSSQSKLLFKTHNLRLSEAYDDIIPRPVDPRKRLDDIVLTVGFPESDEKRFCALEKWDGVRCWILTEKRRVEFWVWESGDCYKIEVRFEDIIETLSCCVNGDASEIDAFLLKLKYGPKVFKRVTVHIATKFKSDRYRFCKEDFDFMWIRTTDFSGSKSIGTSTCFCLEVHNGSTMLDIFSGLPYYREDTLSLTYVDGKTFASAAQIVPLLNAAILGLEFPYEILFQLNALVHAQKISLFAASDMELIKILRGMSLETALVILKKLHQQSSICYDPVFFVKTQMQSVVKKMKHSPASAYKRLTEQNIMSCQRAYVTPSKIYLLGPELETANYVVKNFAEHVSDFMRVTFVEEDWSKLPANALSVNSKEGYFVKPSRTNIYNRVLSILGEGITVGPKRFEFLAFSASQLRGNSVWMFASNEKVKAEDIREWMGCFRKIRSISKCAARMGQLFSASRQTLIVRAQDVEQIPDIEVTTDGADYCFSDGIGKISLAFAKQVAQKCGLSHVPSAFQIRYGGYKGVIAVDRSSFRKLSLRDSMLKFDSNNRMLNVTRWTESMPCFLNREIICLLSTLGIEDAMFEAMQAVHLSMLGNMLEDRDAALNVLQKLSGENSKNLLVKMLLQGYAPSSEPYLSMMLRVHHESQLSELKSRCRILVPKGRILIGCMDEMGILEYGQVYVRVTLTKAELKSRDQSYFRKIDEETSVVIGKVVVTKNPCLHPGDIRVLDAIYEVHFEEKGYLDCIIFPQKGERPHPNECSGGDLDGDQFFVSWDEKIIPSEMDPPMDYAGSRPRLMDHDVTLEEIHKFFVDYMISDTLGVISTAHLVHADRDPEKARSQKCLELANLHSRAVDFAKTGAPAEMPYALKPREFPDFLERFEKPTYISESVFGKLYRAVKSSLAQRKPEAESEDTVAYDVTLEEAGFESFIETAKAHRDMYGEKLTSLMIYYGAANEEEILTGILKTKEMYLARDNRRYGDMKDRITLSVKDLHKEAMGWFEKSCEDEQQKKKLASAWYYVTYNPNHRDEKLTFLSFPWIVGDVLLDIKAENAQRQSVEEKTSGLVSI
B2: SAWADEE HOMEODOMAIN HOMOLOG 1 (SHH1), carboxy-terminal epitope tagged (protein, UniProt Q9XI47 1-258)
chain: MAASDDSSHYFTEFTLSEIVDMENLYKELGDQSLHKDFCQTVASTFSCSVNRNGKSSITWKQVQIWFQEKLKHQSQPKSKTLPSPPLQIHDLSNPSSYASNASNATFVGNSTFVQTRKGKASDLADLAFEAKSARDYAWYDVSSFLTYRVLRTGELEVRVRFSGFDNRHDEWVNVKTSVRERSIPVEPSECGRVNVGDLLLCFQEREDQALYCDGHVLNIKRGIHDHARCNCVFLVRYELDNTEESLGLERICRRPEE
B3: RNA-DIRECTED DNA …ON 4 (RDM4)/… IN MERISTEM … 4 (DMS4) (protein, UniProt Q8GYP3 1-346)
chain: MDGVGESSTQNEVEEKPVIVRVKRKVGQSLLDAFWLEINERPLKRPTLDFSKLSISDSGERGPSVAEDVKPKKVLVRHLETVTDSETTADIIHSFFESDHNEKSCSKGKFEERKIAFKKDNRKEQRLTKSVQKQQIASENARFEQIWRSRKGNKEGIHEKCHFFDVIRVDTEERRDNAQEFTSLEDQKMLASFLPLLRECIPTAAEEIEADIQSSHTEEYVYDYYAVNEEMDISEDSSKNQFPLVIVEDEEEFCDGSDESDYDSEDSNAEDHPKTDYPEEEEEEEEEDDDDDDDDESEEEKSEASDESDDEETSKRHVRSVLGDDEFDDYAEDVYGYSESDEEFES
B4: CLASSY 1 (CLSY1), amino-terminal BLRP-3×HA tagged (protein, UniProt Q9M297 1-1256)
chain: MKRKHYFEFNHPFNPCPFEVFCWGTWKAVEYLRIENGTMTMRLLENGQVLDDIKPFQRLRIRSRKATLIDCTSFLRPGIDVCVLYQRDEETPEPVWVDARVLSIERKPHESECLCTFHVSVYIDQGCIGLEKHRMNKVPVLVGLNEIAILQKFCKEQSLDRYYRWRYSEDCSSLVKTRLNLGKFLPDLTWLLVTSVLKNIVFQIRTVHEKMVYQIVTDEDCEGSSSSLSAMNITVEDGVVMSKVVLFNPAEDTCQDSDVKEEIEEEVMELRRSKRRSGRPERYGDSEIQPDSKDGWVRMMPYRYNIWNVSSDDDDEEEDCEDDKDTDDDLYLPLSHLLRKKGSKKGFSKDKQREIVLVDKTERKKRKKTEGFSRSCELSVIPFTPVFEPIPLEQFGLNANSLCGGVSGNLMDEIDKYRSKAAKYGKKKKKKIEMEEMESDLGWNGPIGNVVHKRNGPHSRIRSVSRETGVSEEPQIYKKRTLSAGAYNKLIDSYMSRIDSTIAAKDKATNVVEQWQGLKNPASFSIEAEERLSEEEEDDGETSENEILWREMELCLASSYILDDHEVRVDNEAFHKATCDCEHDYELNEEIGMCCRLCGHVGTEIKHVSAPFARHKKWTTETKQINEDDINTTIVNQDGVESHTFTIPVASSDMPSAEESDNVWSLIPQLKRKLHLHQKKAFEFLWKNLAGSVVPAMMDPSSDKIGGCVVSHTPGAGKTFLIIAFLASYLKIFPGKRPLVLAPKTTLYTWYKEFIKWEIPVPVHLLHGRRTYCMSKEKTIQFEGIPKPSQDVMHVLDCLDKIQKWHAQPSVLVMGYTSFLTLMREDSKFAHRKYMAKVLRESPGLLVLDEGHNPRSTKSRLRKALMKVDTDLRILLSGTLFQNNFCEYFNTLCLARPKFVHEVLVELDKKFQTNQAEQKAPHLLENRARKFFLDIIAKKIDTKVGDERLQGLNMLRNMTSGFIDNYEGSGSGSGDVLPGLQIYTLLMNSTDVQHKSLTKLQNIMSTYHGYPLELELLITLAAIHPWLVKTTTCCAKFFNPQELLEIEKLKHDAKKGSKVMFVLNLVFRVVKREKILIFCHNIAPIRLFLELFENVFRWKRGRELLTLTGDLELFERGRVIDKFEEPGGQSRVLLASITACAEGISLTAASRVIMLDSEWNPSKTKQAIARAFRPGQQKVVYVYQLLSRGTLEEDKYRRTTWKEWVSSMIFSEEFVEDPSQWQAEKIEDDVLREIVEEDKVKSFHMIMKNEKASTGG

The binders below were run against T1, NUCLEAR RNA POLYMERASE D1 (NRPD1), carboxy-terminal 3×Flag tagged (Arabidopsis thaliana) (assay: co-IP; 0.5-1 g tissue of parental lines and F1 plants expressing both epitope tagged proteins (for RDM4: Col or tagged-NRPD1 plants, endogenous RDM4 detected with anti-RDM4); lysis buffer; Myc agarose or M2 Flag agarose, 2 hours at 4°C; western blot).

binding | Binder
binds | B1
binds | B2
binds | B3
binds | B4
